# Laboratory results: PubChem BioAssay AID2417 (National Center for Advancing Translational Sciences (NCATS), 2010)
# About 4,300 (3.1%) of roughly 140,000 compounds were called active. The shares of active, inactive and inconclusive entries below differ from those in the screen.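 The calls were made as follows: active = readout at or below -70, meaning at least 70% loss of cells showing the perinucleolar compartment, a nuclear body marking cancer cells; inconclusive = readout between -30 and a set limit; inactive = the rest.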
# Assay: High Content Assay for Compounds that inhibit the Assembly of the Perinucleolar Compartment;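 also: plate controls were DMSO wells for no effect and camptothecin positive control wells for full effect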
# Conditions: PC3M PTB-GFP, PNC prevalence imaging, 16 h; at 10 µM; active compounds read low
# How it was run: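 Read-out is percentage of cells bearing a perinucleolar compartment, from automated 20x imaging of fixed, Hoechst-stained PC3M PTB-GFP cells. Cells were seeded 4 h, then exposed 16 h to compound (23 nl of library stock) in duplicate plates.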
row,Structure (SMILES),"activity change (PNC), negative = inhibition"
1,COc1ccc(N(CC(=O)N2CCc3ccccc3C2)S(C)(=O)=O)cc1,inconclusive: -43%
2,Cc1ccc(Cl)cc1N1CCN(S(=O)(=O)c2ccc3c(c2)OCCO3)CC1,inconclusive: -33.7%
3,CCNC(=S)NNC(=O)c1ccc(OC(F)F)cc1,inactive: 15.9%
4,CC(=O)Nc1cc(NC(=O)C2C3C=CC(C3)C2C(=O)O)ccc1Cl (centres undefined),inactive: 3.88%
5,CC(=O)N1CCc2cc(C(=O)CN3CCN(c4cccc(Cl)c4)CC3)ccc21,inactive: 6.27%
6,Cc1nc(C)c(C(=O)C2=C(O)C(=O)N(CCN(C)C)C2c2ccccc2)s1 (centres undefined),inconclusive: -63.8%
7,CCOc1ccc(NC(=S)NC(=O)/C=C/c2ccc(C)cc2)c([N+](=O)[O-])c1,inactive: 11.6%
8,Cc1ccccc1NC(=O)Cc1nc(CCl)cs1,inconclusive: -30.1%
9,CCCc1ccc(/C=C2\C(=O)c3ccccc3C(O)=C2C(=O)OCC)cc1,inconclusive: -30.4%
10,Cn1c(CSc2nc3ccc(Br)cc3[nH]2)nc2ccccc21,inactive: 54.6%
11,Cc1cccc2c(=O)n3c(nc12)CCCCC3,inconclusive: -54.4%
12,CCOC(=O)c1cc2ccccc2n1CCN(CC)CC,inactive: 0.535%
13,CCOc1ccc(OCC)c(NC(=O)Nc2ccc3c(c2)N(C)C(=O)CS3)c1,inconclusive: -51.2%
14,O=C(NCCc1ccccc1)c1ncn[nH]1,inconclusive: -44.3%
15,COC(=O)Nc1ccc(S(=O)(=O)N2CCCCCC2)cc1,inactive: 98.6%
16,COC(=O)N[C@H](CC(C)=O)c1ccccc1,active: -98.9%
17,OC(CC1CC12c1ccccc1-c1ncccc12)(c1ccccc1)c1ccccc1 (centres undefined),inconclusive: -51.2%
18,COc1cc(CNC2CCCCCC2)cc(OC)c1,inconclusive: -42.3%
19,CS(=O)(=O)c1nc(-c2ccccc2)cc(C(F)(F)F)n1,active: -100%
20,Cc1ccc(NC(=O)C(C)[n+]2ccccc2)cc1[N+](=O)[O-] (centres undefined),inconclusive: -36.6%
21,CCn1nc(C(=O)NCc2ccco2)c(Cl)c1Cl,inconclusive: -47.3%
22,CCOC(=O)C1=C(C)NC(C)=C(C(=O)OCC)C1c1cc(N)ccc1OC(F)F,inconclusive: -70.3%
23,COC(=O)Cn1c(CN2CCc3ccccc3C2)nc2c1c(=O)n(C)c(=O)n2C,inconclusive: -58.6%
24,CCN(CC)c1ccc(/C=N/NC(=O)Nc2nonc2N)cc1,inconclusive: -61.5%

row,Structure (SMILES),"activity change (PNC), negative = inhibition"
1,CCOC(=O)CSc1nnc2n(C3CCCCC3)c(=O)c3c4c(sc3n12)CCCC4,inconclusive: -40%
2,O=C(CNS(=O)(=O)c1cccc2nsnc12)NCc1ccc(Cl)cc1,inactive: 22.8%
3,C=CCC(C#Cc1ccc(C)cc1)N(CC)CC (centres undefined),inconclusive: -34.2%
4,COC(=O)c1cc(Br)c(=O)n(CCC2=CCCCC2)c1,inconclusive: -48.2%
5,COc1ccc(CN(C)Cc2ccccc2)c(OC)c1OC,inconclusive: -35.1%
6,CC(c1ccccc1)C(CC(=O)O)C(=O)NC1CCCCC1 (centres undefined),inconclusive: -34.5%
7,O=C1C(=O)c2ccc(-c3ccccc3)cc2-c2ccccc21,active: -105%
8,CCOc1ccc(NC(=O)CCSc2ccc(C)cc2)cc1,inactive: 11.5%
9,Cc1ccc2cccc(Oc3ncnc4scc(-c5ccc(Cl)cc5)c34)c2n1,inactive: 5.36%
10,CCC1CCC2(CC1)NC(CO)(CO)CO2 (centres undefined),inconclusive: -55.9%
11,O=C(/C=C/c1ccccc1Cl)Nn1cnc2ccccc2c1=O,inactive: 21.7%
12,O=C(CSc1ncccc1-c1nc2ccccc2[nH]1)NCc1ccco1,inconclusive: -44.7%
13,O=C(O)CCCC(=O)Nc1ccc(Sc2ccc([N+](=O)[O-])cc2)cc1,inconclusive: -73%
14,CCOc1cccc(-c2nnc3sc(-c4cc(OC)c(OC)c(OC)c4)nn23)c1,inactive: 25.5%
15,CCCC(=O)Nc1ccc(N2CCOCC2)cc1,inconclusive: -37.6%
16,Cn1c(C(=O)NCc2cccnc2)cc2sccc21,inconclusive: -76.8%
17,Cc1cc(C)cc(-n2c(SCC(=O)NCc3ccc4c(c3)OCO4)nc3ccccc3c2=O)c1,inconclusive: -50.8%
18,CCN(C(=O)COC(=O)c1ccccc1Nc1cccc(C)c1C)C1CCS(=O)(=O)C1 (centres undefined),inactive: -14.4%
19,O=C(Nc1ccc(Cl)cc1C(=O)Nc1ccccn1)c1ccco1,inactive: 12%
20,CCOC(=O)c1cc(-c2ccncc2)nc2c1c(C)nn2-c1ccccn1,active: -100%
21,COc1cccc2cc(C(=O)NCC3CCCO3)c(=O)oc12 (centres undefined),inconclusive: -31.2%
22,O=C1/C(=C\Nc2ccc(OC(F)(F)F)cc2)CCN1c1ncccn1,inconclusive: -34.9%
23,COc1ccc(NC(=O)CO/N=C2\CCCc3nonc32)cc1,inconclusive: -56.1%
24,Cc1cc2c(ncn2C)c(NS(=O)(=O)c2cc(Cl)ccc2Cl)c1C,inconclusive: -30.5%

row,Structure (SMILES),"activity change (PNC), negative = inhibition"
1,O=C(Nn1cnnc1)C(c1ccccc1)c1ccccc1,inconclusive: -38.4%
2,OCC(CO)(CO)N=Cc1c(O)ccc2ccccc12,inactive: -3.15%
3,CCCN(CCC)C1=CC(=[N+]2CCCC2)CC(C)(C)C1,inconclusive: -69.1%
4,CC(=O)C1=C(c2ccccc2)OC(N)=C(C#N)C1c1ccccc1F (centres undefined),inconclusive: -50.1%
5,CCOc1ccc(N2C(=O)c3cccnc3C2Nc2ccc(C)cc2)cc1 (centres undefined),inactive: 15.5%
6,O=C(c1ccc2c(c1)OCO2)N1CCN(c2ccc(F)cc2)CC1,inconclusive: -49.4%
7,Cc1ccc2nc(SCc3nnc(-c4ccccc4)o3)[nH]c2c1,inactive: 67.4%
8,C=CCOC(=O)CCC(=O)Nc1cc(OC)nc(OC)n1,inconclusive: -35.9%
9,COC(=O)c1[nH]c2cc(OC)ccc2c1N,inconclusive: -66.1%
10,O=C(c1ccccc1)c1ccc(N2CCOCC2)c(F)c1,inconclusive: -46.9%
11,O=C(NCCNC(=O)C(c1ccccc1)c1ccccc1)c1ccco1,inconclusive: -58%
12,COc1ccc(CC(NC(C)=O)C(=O)NC2CCN(c3nc(C)cc(C)c3C#N)CC2)c(OC)c1 (centres undefined),inactive: 4.44%
13,COc1nnc(OC)c2ccccc12,inconclusive: -34.2%
14,CCOn1c(=O)c(-c2cc3ccccc3o2)[n+]([O-])c2ccccc21,inconclusive: -39.9%
15,COc1cc(C2CC(=O)n3c(nc4ccccc43)S2)cc(OC)c1OC (centres undefined),active: -97.6%
16,CCN(CC)CC(O)COc1ccccc1C(=O)CCc1ccccc1 (centres undefined),active: -86%
17,COc1nc(NC23CC4CC(CC(C4)C2)C3)nc(OC)n1,inactive: -6.74%
18,CCCOc1ccc(Br)cc1CSC(=N)N,inconclusive: -32.8%
19,O=C(CCN1C(=O)C2C3CCC(C3)C2C1=O)Nc1ccc(Br)cc1 (centres undefined),inconclusive: -33.5%
20,O=S1(=O)C=CC(Nc2cccc(Cl)c2)C1 (centres undefined),inconclusive: -43.2%
21,COc1ccc(S(=O)(=O)n2nc(-c3ccc(Cl)cc3)cc2N)cc1OC,inactive: -7.34%
22,Cc1ccc(S(=O)(=O)Nc2cc(C(F)(F)F)ccc2N2CCOCC2)c(C)c1,inactive: -20.5%
23,O=C(CSc1ncnc2ccccc12)Nc1cc(S(=O)(=O)N2CCCCC2)ccc1Cl,inconclusive: -57.9%
24,CCOc1ccc(NC(=O)N2CC=C(n3c(=O)[nH]c4ccccc43)CC2)cc1,inconclusive: -39.4%

# Structures listed so far containing two or more sulfur atoms, in the order listed:
row,Structure (SMILES),"activity change (PNC), negative = inhibition"
1,CCOC(=O)CSc1nnc2n(C3CCCCC3)c(=O)c3c4c(sc3n12)CCCC4,inconclusive: -40%
2,O=C(CNS(=O)(=O)c1cccc2nsnc12)NCc1ccc(Cl)cc1,inactive: 22.8%
23,O=C(CSc1ncnc2ccccc12)Nc1cc(S(=O)(=O)N2CCCCC2)ccc1Cl,inconclusive: -57.9%

# Going on with the list.

row,Structure (SMILES),"activity change (PNC), negative = inhibition"
1,C[C@@H](O)c1nc2ccccc2n1N,inactive: -14.7%
2,CCc1nc(CNC(=O)c2cc(OC)c(OC)c(OC)c2)no1,inconclusive: -61%
3,CC1CCN(C(=O)Cn2c(=O)oc3ccccc32)CC1,inconclusive: -42.4%
4,Cc1nc(SCC(=O)NCC(F)(F)F)c2c(-c3cccs3)csc2n1,inconclusive: -30.3%
5,O=C(NC(=S)Nc1ccccc1N1CCCC1)c1ccc([N+](=O)[O-])cc1,inconclusive: -47.5%
6,O=C(NC1CCCC1)c1ccc2nc(-c3ccco3)c(-c3ccco3)nc2c1,inconclusive: -64.5%
7,CC(C)NC(=O)C(=O)N/N=C/c1ccco1,inconclusive: -31.5%
8,CCN(CC)c1ccc(NC(=O)COc2ccccc2C)cc1S(=O)(=O)Nc1ccccc1OC,inactive: -13.2%
9,Cc1ccc(SCC(=O)Nc2ccc(-c3nnc(-c4ccco4)o3)cc2)cc1,inactive: -25.3%
10,Nc1sccc1C(=O)c1ccc(Cl)cc1,inconclusive: -39.4%
11,Cc1ccc(Cn2c(NC(=O)c3ccco3)nc3ccccc32)cc1,inactive: 2.65%
12,Cc1cccc(NC(=O)c2cc(NC(=O)C3CCCCC3C(=O)O)ccc2Cl)n1 (centres undefined),inconclusive: -50.4%
13,Cc1nc2ncnn2c(N2CCN(C(=O)c3cccc(F)c3)CC2)c1C,inconclusive: -32.2%
14,C/C(CC(=O)Nc1ccc(OCc2ccccc2)cc1)=N\NC(=O)C(=O)Nc1ccc(C)c(Cl)c1,inactive: 1.11%
15,CC(C)c1ccc(C2NC(=S)NC3=C2C(=O)CCC3)cc1 (centres undefined),inactive: 5.37%
16,O=C(CCC1CCCCC1)NCc1cccs1,inactive: 2.4%
17,COc1ccc(N/C(=N\c2nc(C)cc(C)n2)NC(C)=O)cc1OC,inconclusive: -60.9%
18,Cc1cccc(CN2CCN(CC(=O)NCc3cccs3)C2=O)c1,inconclusive: -55%
19,CCC(C)NC(=O)CO/N=C/c1ccccc1OC(F)F (centres undefined),inconclusive: -36.3%
20,COc1ccccc1OCC(=O)Nc1ccc(C(N)=O)cc1,inconclusive: -61.2%
21,CC1(c2cccc([N+](=O)[O-])c2)CC(C)(C)N(C(=O)c2ccccc2)c2ccccc21 (centres undefined),inconclusive: -55.5%
22,Cc1nn(-c2ccccc2)c(Cl)c1C(=O)NCC(=O)O,inconclusive: -34.2%

# A few values from the entries so far:
# Under activity change (PNC), negative = inhibition, O=C(CCC1CCCCC1)NCc1cccs1 has the entry inactive: 2.4%
# Under activity change (PNC), negative = inhibition, COc1ccccc1OCC(=O)Nc1ccc(C(N)=O)cc1 has the entry inconclusive: -61.2%
# Under activity change (PNC), negative = inhibition, Cc1ccc(Cn2c(NC(=O)c3ccco3)nc3ccccc32)cc1 has the entry inactive: 2.65%
